Reference: paper PMC10070107
These are yes or no findings as the source states them, for the method shown. In cells and extracts the contact can be indirect. Some results given as binding are weak or reduced against the parent protein; the word gives no strength. For part of these data: Sequences can lack the tags named with a protein.

Amino acid sequences for entries named in this document (tags omitted).
UniProt Q9Y572: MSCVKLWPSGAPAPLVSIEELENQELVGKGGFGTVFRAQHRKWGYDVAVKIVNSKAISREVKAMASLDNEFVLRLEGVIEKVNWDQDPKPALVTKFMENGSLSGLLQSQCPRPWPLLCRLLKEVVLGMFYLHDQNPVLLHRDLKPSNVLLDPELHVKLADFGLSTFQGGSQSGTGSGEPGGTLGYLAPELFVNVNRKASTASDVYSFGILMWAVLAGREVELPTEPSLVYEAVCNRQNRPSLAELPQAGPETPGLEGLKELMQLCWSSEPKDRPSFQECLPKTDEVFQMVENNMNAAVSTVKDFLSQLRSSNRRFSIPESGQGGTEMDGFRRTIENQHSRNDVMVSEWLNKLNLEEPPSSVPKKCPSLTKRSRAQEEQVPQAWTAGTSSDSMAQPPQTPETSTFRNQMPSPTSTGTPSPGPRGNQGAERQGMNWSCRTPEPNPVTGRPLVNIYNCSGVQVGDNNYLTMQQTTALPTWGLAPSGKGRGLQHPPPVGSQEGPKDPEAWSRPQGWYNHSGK
UniProt Q13546: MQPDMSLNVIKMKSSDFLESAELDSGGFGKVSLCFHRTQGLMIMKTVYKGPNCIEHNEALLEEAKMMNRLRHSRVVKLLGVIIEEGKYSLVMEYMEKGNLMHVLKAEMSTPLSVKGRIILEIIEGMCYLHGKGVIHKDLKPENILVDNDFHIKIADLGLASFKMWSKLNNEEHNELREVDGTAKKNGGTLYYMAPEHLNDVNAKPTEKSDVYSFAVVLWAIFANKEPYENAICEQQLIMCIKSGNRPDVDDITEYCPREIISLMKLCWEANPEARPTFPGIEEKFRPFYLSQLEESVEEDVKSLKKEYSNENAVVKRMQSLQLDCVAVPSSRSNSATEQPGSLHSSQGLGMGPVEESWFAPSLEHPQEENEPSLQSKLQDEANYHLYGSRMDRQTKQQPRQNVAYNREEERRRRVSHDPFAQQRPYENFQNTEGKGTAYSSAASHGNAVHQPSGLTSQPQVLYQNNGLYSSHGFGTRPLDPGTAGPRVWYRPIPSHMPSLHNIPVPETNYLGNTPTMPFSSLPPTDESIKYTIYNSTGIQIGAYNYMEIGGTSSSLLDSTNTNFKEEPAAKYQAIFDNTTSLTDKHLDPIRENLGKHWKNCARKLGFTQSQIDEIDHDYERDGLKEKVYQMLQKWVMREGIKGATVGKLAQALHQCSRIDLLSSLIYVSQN

T1: recombinant glutathione-S-transferase-fused (GST-fused) Gab1 protein, full length (UniProt Q13480)
T1 sequence: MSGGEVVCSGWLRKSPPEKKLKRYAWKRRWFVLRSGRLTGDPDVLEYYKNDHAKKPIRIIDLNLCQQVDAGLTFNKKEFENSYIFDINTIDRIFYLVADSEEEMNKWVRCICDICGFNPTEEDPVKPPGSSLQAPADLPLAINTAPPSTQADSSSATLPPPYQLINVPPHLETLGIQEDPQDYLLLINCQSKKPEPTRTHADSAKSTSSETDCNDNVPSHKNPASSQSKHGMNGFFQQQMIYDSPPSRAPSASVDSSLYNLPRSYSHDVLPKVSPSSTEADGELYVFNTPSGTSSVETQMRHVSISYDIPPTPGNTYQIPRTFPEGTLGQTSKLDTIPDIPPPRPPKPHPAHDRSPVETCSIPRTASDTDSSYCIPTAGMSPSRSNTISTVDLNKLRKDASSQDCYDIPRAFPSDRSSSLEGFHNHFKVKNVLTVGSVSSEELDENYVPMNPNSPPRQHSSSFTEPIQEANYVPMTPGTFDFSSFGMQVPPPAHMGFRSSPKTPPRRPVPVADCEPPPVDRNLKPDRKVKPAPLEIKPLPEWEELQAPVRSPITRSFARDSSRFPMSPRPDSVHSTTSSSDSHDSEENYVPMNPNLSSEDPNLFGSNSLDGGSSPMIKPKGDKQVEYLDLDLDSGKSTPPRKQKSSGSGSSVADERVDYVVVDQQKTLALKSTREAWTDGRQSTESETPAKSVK

T2: Gab1-Flag (UniProt Q13480)
T2 sequence: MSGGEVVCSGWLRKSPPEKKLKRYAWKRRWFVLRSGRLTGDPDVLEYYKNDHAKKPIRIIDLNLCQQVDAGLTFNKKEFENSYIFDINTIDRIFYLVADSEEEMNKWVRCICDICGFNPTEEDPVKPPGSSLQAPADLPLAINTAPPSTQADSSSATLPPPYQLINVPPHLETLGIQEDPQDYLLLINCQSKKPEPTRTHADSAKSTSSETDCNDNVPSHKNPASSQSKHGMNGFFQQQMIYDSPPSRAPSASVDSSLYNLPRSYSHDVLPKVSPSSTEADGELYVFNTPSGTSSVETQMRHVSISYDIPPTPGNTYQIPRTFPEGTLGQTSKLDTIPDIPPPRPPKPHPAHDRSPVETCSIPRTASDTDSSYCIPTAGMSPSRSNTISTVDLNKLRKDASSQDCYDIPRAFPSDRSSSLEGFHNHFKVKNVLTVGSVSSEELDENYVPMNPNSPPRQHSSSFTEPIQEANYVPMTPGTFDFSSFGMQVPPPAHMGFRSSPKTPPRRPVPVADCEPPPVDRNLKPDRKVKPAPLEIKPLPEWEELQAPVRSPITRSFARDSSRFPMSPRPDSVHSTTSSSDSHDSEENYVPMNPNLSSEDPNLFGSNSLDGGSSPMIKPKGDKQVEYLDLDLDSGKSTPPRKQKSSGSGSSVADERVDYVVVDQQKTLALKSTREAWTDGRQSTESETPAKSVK


Tests used:
[1] = target: T1, recombinant glutathione-S-transferase-fused (GST-fused) Gab1 protein, full length; experiment: pull-down; purified GST-Gab1 bound to glutathione-sepharose incubated overnight at 4°C with cleared HEK293T lysates with or without RIPK3 overexpression; washed 3 times with lysis buffer; immunoblotting with anti-RIPK3 antibody; only the target purified
[2] = target: T2, Gab1-Flag; experiment: co-IP; HEK293T cells co-transfected for 24 hours (Gab1-Flag with RIPK3-Myc, followed by T/S/Z for 3 hours; Gab1-Flag with AURKA-HA); IP with anti-Flag antibody or anti-IgG, immunoblotting
[3] = target: receptor-interaction protein kinase 3 (RIPK3), endogenous in HT29 cells (human (endogenous in HT29)) (UniProt Q9Y572); experiment: co-IP; endogenous proteins in total lysates of HT29 cells (control or Gab1-knockdown), with or without T/S/Z for 3 hours; IP with anti-RIPK3 antibody or anti-IgG, immunoblotting

Row | Molecule | binding [1] | binding [2] | binding [3]
1 | RIPK3-Myc (from UniProt Q9Y572 1-518) |  | binds | 
2 | receptor-interaction protein kinase 1 (RIPK1), endogenous in HT29 cells (from UniProt Q13546 1-671) |  |  | binds
3 | AURKA-HA (protein, UniProt O14965 1-403) MDRSKENCISGPVKATAPVGGPKRVLVTQQFPCQNPLPVNSGQAQRVLCPSNSSQRIPLQAQKLVSSHKPVQNQKQKQLQATSVPHPVSRPLNNTQKSKQPLPSAPENNPEEELASKQKNEESKKRQWALEDFEIGRPLGKGKFGNVYLAREKQSKFILALKVLFKAQLEKAGVEHQLRREVEIQSHLRHPNILRLYGYFHDATRVYLILEYAPLGTVYRELQKLSKFDEQRTATYITELANALSYCHSKRVIHRDIKPENLLLGSAGELKIADFGWSVHAPSSRRTTLCGTLDYLPPEMIEGRMHDEKVDLWSLGVLCYEFLVGKPPFEANTYQETYKRISRVEFTFPDFVTEGARDLISRLLKHNPSQRPMLREVLEHPWITANSSKPSNCQNKESASKQS |  | binds | 

Continued, values first:

Row | binding [1] | binding [2] | binding [3] | Molecule
4 | binds |  |  | RIPK3 of HEK293T cell lysates without RIPK3 overexpression (from UniProt Q9Y572 1-518)
5 | binds |  |  | RIPK3, full length, overexpressed in HEK293T cells (pull-down) (from UniProt Q9Y572 1-518)
6 |  |  | binds | Grb2-associated binder 1 (Gab1), endogenous in HT29 cells (protein, UniProt Q13480 1-694) MSGGEVVCSGWLRKSPPEKKLKRYAWKRRWFVLRSGRLTGDPDVLEYYKNDHAKKPIRIIDLNLCQQVDAGLTFNKKEFENSYIFDINTIDRIFYLVADSEEEMNKWVRCICDICGFNPTEEDPVKPPGSSLQAPADLPLAINTAPPSTQADSSSATLPPPYQLINVPPHLETLGIQEDPQDYLLLINCQSKKPEPTRTHADSAKSTSSETDCNDNVPSHKNPASSQSKHGMNGFFQQQMIYDSPPSRAPSASVDSSLYNLPRSYSHDVLPKVSPSSTEADGELYVFNTPSGTSSVETQMRHVSISYDIPPTPGNTYQIPRTFPEGTLGQTSKLDTIPDIPPPRPPKPHPAHDRSPVETCSIPRTASDTDSSYCIPTAGMSPSRSNTISTVDLNKLRKDASSQDCYDIPRAFPSDRSSSLEGFHNHFKVKNVLTVGSVSSEELDENYVPMNPNSPPRQHSSSFTEPIQEANYVPMTPGTFDFSSFGMQVPPPAHMGFRSSPKTPPRRPVPVADCEPPPVDRNLKPDRKVKPAPLEIKPLPEWEELQAPVRSPITRSFARDSSRFPMSPRPDSVHSTTSSSDSHDSEENYVPMNPNLSSEDPNLFGSNSLDGGSSPMIKPKGDKQVEYLDLDLDSGKSTPPRKQKSSGSGSSVADERVDYVVVDQQKTLALKSTREAWTDGRQSTESETPAKSVK
